One test has as its target EphA4-GFP (UniProt Q03137). As to the kind of experiment: co-IP; HEK293T cells co-transfected with PDGFRβ-Flag, FGFR1-HA, EphA4-GFP and FRS2α-myc; 150 μg of lysate; IP with anti-PDGFRβ, anti-EphA4 or anti-FRS2α, immunoblot.
Test [1] has as its target platelet-derived growth factor receptor β (PDGFRβ), endogenous in mouse embryonic neural progenitor cells (mouse (endogenous in embryonic NPCs)) (UniProt P05622). Description: co-IP; lysates of mouse embryonic NPCs starved 5 h and stimulated with PDGF-BB (20 ng/ml; 15 min, the peak of ligand stimulation); control cells or cells transduced with the dominant-negative EphA4 retrovirus; IP with anti-EphA4 or anti-PDGFRβ on protein A agarose, immunoblot.

Protein sequences, listed by entry. Tags and fused reporters are not part of them. Residues count along the entry.
UniProt P05622, residues 32-1098: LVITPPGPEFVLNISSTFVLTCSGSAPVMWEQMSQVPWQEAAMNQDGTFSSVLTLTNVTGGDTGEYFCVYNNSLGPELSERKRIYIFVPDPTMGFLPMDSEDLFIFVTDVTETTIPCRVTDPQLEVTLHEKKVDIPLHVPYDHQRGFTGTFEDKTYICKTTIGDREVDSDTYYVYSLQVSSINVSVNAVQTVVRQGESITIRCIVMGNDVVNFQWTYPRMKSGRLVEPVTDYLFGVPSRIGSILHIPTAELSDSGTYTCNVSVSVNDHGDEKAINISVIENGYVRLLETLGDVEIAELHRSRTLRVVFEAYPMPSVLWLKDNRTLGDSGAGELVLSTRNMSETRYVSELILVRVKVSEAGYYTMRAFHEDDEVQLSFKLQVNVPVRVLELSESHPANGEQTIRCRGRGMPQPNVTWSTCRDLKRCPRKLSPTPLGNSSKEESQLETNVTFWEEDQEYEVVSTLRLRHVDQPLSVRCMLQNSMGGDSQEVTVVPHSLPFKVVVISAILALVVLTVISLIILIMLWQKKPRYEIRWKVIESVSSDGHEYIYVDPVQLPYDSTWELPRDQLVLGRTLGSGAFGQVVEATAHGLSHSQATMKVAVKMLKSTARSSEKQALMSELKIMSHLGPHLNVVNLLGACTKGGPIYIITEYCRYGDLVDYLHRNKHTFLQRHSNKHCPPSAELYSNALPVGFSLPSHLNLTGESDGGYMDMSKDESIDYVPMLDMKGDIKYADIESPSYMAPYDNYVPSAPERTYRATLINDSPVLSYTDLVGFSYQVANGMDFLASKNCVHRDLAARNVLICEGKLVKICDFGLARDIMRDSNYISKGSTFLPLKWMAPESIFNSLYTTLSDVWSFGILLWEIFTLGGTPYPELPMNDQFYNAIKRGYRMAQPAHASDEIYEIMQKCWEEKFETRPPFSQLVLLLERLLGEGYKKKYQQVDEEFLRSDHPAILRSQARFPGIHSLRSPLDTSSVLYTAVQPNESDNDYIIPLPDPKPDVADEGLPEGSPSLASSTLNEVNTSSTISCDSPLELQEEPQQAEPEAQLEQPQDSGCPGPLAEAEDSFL

Test [2] shares this target. Description: co-IP; lysates of mouse embryonic NPCs without PDGF-BB stimulation; IP with anti-EphA4 or anti-PDGFRβ on protein A agarose, immunoblot.
Another test addresses T1, FRS2α-myc (UniProt Q8WU20).
T1 sequence: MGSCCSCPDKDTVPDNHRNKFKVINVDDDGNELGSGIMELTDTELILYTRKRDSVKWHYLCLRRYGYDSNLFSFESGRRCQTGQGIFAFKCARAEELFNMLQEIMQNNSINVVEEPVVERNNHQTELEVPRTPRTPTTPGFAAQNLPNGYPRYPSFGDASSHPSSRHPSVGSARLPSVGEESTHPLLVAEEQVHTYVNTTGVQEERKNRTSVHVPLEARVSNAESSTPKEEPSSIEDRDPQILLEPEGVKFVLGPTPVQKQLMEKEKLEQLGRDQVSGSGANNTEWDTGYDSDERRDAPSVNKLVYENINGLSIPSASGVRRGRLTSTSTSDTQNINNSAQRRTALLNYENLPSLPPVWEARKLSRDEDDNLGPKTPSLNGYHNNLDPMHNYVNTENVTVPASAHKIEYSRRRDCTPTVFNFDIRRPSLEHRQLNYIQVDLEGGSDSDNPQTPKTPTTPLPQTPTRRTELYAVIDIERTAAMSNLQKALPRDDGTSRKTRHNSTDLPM
Description: co-IP; HEK293T cells co-transfected with PDGFRβ-Flag, FGFR1-HA, EphA4-GFP and FRS2α-myc; 150 μg of lysate; IP with anti-PDGFRβ, anti-EphA4 or anti-FRS2α, immunoblot.

The next test deals with PDGFRβ-Flag (UniProt P09619). The description is as above.
Test [3] deals with ephrin receptor A4 (EphA4), endogenous in mouse embryonic neural progenitor cells (mouse (endogenous in embryonic NPCs)) (UniProt Q03137). As to the kind of experiment: co-IP; lysates of mouse embryonic NPCs starved 5 h and stimulated with PDGF-BB (20 ng/ml; 15 min, the peak of ligand stimulation); control cells or cells transduced with the dominant-negative EphA4 retrovirus; IP with anti-EphA4 or anti-PDGFRβ on protein A agarose, immunoblot.

Binding data for five substances are collected here from paper PMC7026009.

Results are given in words; binding and its absence hold for the method and conditions named. In cells and extracts the contact can be indirect. Some binding calls cover weakened binding; strength is not graded here. For some assays here: Sequences can lack the tags named with a protein.

With “PDGFRβ-Flag (from UniProt P09619 33-1106) (receptor)”, in the test with EphA4-GFP, the binding entry was “binds”.

As to “ephrin receptor A4 (EphA4), endogenous in mouse embryonic neural progenitor cells (from UniProt Q03137 20-986)”, the figures for the binding entry in test [1] and in test [2] were “binds” and “binds weakly”, respectively.

For “FGFR1-HA (from UniProt P11362 22-822) (receptor)”, the binding entry in the test with FRS2α-myc, in the test with EphA4-GFP and in the test with PDGFRβ-Flag was “binds” each time.

As to “EphA4-GFP (from UniProt Q03137 20-986) (receptor)”, the binding entry in the test with PDGFRβ-Flag was “binds”.

Take “platelet-derived growth factor receptor β (PDGFRβ), endogenous in mouse embryonic neural progenitor cells (from UniProt P05622 32-1098)”: the binding result in test [3] is “binds”.
